Consider one substance from paper PMC9667139.

Amino acid sequences for entries named in this document (tags omitted).
UniProt Q8INR6: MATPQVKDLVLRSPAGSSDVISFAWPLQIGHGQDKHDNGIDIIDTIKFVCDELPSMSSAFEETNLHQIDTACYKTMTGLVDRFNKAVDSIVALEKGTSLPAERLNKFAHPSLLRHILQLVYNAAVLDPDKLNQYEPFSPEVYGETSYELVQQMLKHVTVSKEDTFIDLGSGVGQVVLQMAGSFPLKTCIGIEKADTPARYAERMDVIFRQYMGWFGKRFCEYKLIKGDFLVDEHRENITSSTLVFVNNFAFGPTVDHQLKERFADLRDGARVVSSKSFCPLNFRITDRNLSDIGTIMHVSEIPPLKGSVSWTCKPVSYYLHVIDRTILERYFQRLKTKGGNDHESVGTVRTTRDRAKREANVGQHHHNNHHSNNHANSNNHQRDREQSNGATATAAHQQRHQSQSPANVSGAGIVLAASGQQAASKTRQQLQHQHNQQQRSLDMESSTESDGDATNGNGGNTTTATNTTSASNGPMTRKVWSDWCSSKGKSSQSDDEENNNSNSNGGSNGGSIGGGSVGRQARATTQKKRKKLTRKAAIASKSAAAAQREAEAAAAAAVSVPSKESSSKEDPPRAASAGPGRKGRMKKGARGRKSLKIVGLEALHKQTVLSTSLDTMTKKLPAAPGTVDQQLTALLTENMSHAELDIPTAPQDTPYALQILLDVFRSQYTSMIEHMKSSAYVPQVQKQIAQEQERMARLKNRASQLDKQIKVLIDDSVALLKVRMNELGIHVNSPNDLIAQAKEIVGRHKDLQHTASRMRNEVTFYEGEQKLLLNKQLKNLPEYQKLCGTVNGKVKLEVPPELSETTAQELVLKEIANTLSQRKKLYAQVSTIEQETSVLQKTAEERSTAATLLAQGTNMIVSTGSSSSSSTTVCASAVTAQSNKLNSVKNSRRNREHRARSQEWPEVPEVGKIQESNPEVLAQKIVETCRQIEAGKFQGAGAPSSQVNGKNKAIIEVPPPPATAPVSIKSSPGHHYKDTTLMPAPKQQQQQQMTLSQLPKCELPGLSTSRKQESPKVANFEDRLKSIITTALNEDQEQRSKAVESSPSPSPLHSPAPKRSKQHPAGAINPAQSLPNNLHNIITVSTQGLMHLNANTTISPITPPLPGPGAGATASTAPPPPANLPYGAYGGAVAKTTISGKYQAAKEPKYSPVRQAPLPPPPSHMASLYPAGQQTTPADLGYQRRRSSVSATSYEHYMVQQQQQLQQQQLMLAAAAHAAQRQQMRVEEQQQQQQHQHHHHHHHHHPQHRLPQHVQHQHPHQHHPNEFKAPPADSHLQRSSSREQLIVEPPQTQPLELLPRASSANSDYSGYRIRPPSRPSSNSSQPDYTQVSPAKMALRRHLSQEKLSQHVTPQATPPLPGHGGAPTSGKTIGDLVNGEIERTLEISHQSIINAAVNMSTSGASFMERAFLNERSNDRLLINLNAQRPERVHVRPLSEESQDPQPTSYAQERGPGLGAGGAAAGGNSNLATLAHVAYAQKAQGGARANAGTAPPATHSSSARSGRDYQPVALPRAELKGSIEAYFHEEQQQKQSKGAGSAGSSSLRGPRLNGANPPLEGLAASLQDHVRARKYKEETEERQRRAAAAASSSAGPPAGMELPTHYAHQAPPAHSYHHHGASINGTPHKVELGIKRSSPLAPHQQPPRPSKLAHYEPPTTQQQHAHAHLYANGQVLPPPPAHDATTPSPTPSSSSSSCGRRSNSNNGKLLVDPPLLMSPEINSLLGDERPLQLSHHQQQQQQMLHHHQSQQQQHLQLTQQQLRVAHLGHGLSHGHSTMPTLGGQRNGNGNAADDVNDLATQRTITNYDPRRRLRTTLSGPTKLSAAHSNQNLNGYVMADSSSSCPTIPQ

Results are given in words; binding and its absence hold for the method and conditions named. In cells and extracts the contact can be indirect. Some entries that bind do so weakly or less than the wild type.

Assay [1] concerns the target GST-H4_(1-34) H4R17E (not stated (human or Drosophila H4 cloned)) (UniProt P84040). Nature of the assay: pull-down; GST-H4 tail on glutathione agarose beads incubated with Gpp-flag S2 cell lysate, 2 h at 4°C, 50 mM Tris-Cl pH 8.0, 150 mM NaCl; washed with modified RIPA buffer; bound Gpp-flag detected by anti-flag blot; only the target purified.
The target of assay [2] is GST-H4_(1-34) H4R17A (not stated (human or Drosophila H4 cloned)) (UniProt P84040). The description is as above.

As to “Gpp-flag (grappa-flag; Gpp, Dot1 homologue in flies) (from UniProt Q8INR6 1-1848) (enzyme)”, the binding entry in assay [1] and in assay [2] was “binds” each time.
